Values quoted from earlier work in patent publication US20070129409A1, “Androgen receptor modulators” (priority 2003, published 2007).
At least one compound was matched to its structure with a doubt left.

Tests used:
alopecia [1] = settings: 83 males, topical solution of 3% minoxidil, 19 months; cited from earlier work
alopecia [2] = settings: Tosti, Dermatologica 1986; cited from earlier work

## Nc1cc(N2CCCCC2)nc(N)[n+]1[O-] [minoxidil, Minoxidil]
Alopecia [1]
  subjects in whom hair growth occurred: 55%
  subjects who considered the growth to be cosmetically relevant: 20%
Alopecia [2]
  subjects with cosmetically acceptable re-growth: 18.1%
